Experimental data taken from PubChem BioAssay AID2551 (National Center for Advancing Translational Sciences (NCATS), 2010).
The campaign covered roughly 310,000 compounds. About 17,000 (5.5%) were called active. The inconclusive results got no clear call from the source; some entries with a clear call stand among them for comparison. Calls come from the whole dose curve; as a rule, active = well fitted inhibition curve with a large enough effect; inconclusive = small, poorly fitted or top-dose-only effect, or effect the other way; inactive = no such curve, though single readings can be large or run the other way. Where the call is inconclusive, the potency comes from a doubtful curve fit.

Chains of the proteins cited; added tags and fusions are not shown. Lines headed by an entry give the natural chain unless they say otherwise; changes in a name come on top.
UniProt P51450: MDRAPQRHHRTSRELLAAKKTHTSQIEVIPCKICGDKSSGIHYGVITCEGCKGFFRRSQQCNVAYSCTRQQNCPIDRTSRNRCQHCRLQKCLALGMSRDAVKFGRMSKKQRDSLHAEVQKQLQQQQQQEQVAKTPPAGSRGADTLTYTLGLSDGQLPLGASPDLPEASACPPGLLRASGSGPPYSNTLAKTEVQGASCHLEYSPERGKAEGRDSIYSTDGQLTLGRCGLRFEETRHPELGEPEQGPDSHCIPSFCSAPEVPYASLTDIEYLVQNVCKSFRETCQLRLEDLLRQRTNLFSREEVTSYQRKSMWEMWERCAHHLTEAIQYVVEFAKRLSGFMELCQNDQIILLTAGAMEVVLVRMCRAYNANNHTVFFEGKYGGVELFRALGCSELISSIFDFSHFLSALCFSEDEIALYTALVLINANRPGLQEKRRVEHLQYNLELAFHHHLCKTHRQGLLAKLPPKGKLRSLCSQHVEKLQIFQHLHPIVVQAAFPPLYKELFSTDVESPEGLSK

biological target: Nuclear receptor ROR-gamma (Mus musculus) (UniProt P51450); assay: qHTS for inhibitors of ROR gamma transcriptional activity; conditions: Drosophila S2 Gal4-RORgamma UAS-luciferase reporter, 20 h; activity change, negative = inhibition: at 53.6 µM (top of the series); note: nearly all actives have a fitted effect of over 60% in size
Summary of the method: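 Read-out: Photinus luciferase luminescence; inhibitors lower reporter signal. Insect Schneider cells with Gal4-ROR gamma fusion under metallothionein promoter, UAS reporter; 700 uM final copper sulfate induction, 20 hr, ambient temperature.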
% is set by controls: 0 for no effect and ±100 for the full control effect; potency is the fitted concentration of half-maximal effect.

Row | SMILES | Potency | activity change, negative = inhibition
1 | COc1ccccc1N1CCN(S(=O)(=O)c2ccc(-n3cnnn3)cc2)CC1 | inconclusive: 15.8 µM [activator, partial curve] | 
2 | CCc1ccc(C2NC(=S)NC3=C2C(=O)N(c2ccccc2OC)C(c2ccc(CC)cc2)N3)cc1 (stereo unspecified) | inconclusive: 35.5 µM [inhibitor, single point] | 
3 | S=c1[nH]c(-c2ccccc2)cs1 | active: 7.08 µM | 
4 | Cc1nn(C)c(C)c1NC(=O)CC12CC3CC(CC(C3)C1)C2 | inconclusive: 35.5 µM [activator, single point] | 
5 | O=C(NCc1ccc2c(c1)OCO2)c1ccc(NS(=O)(=O)c2ccc3c(c2)OCCO3)cc1 | inconclusive: 31.6 µM [activator, single point] | 
6 | COCCCNC(=O)c1cc(S(=O)(=O)N2CCOCC2)ccc1SCc1cccc(OC)c1OC |  | inactive: 29.2%
7 | CCOC(=O)N1CCC(NC(=O)c2cc(-c3ccc(OC)cc3)nc3ccccc23)CC1 | inconclusive: 6.31 µM [activator, partial curve] | 
8 | C=CCn1c(Cc2cccs2)nnc1SCC(=O)c1ccc(F)cc1 | inconclusive: 31.6 µM [activator, single point] | 
9 | CC1CN(S(=O)(=O)c2ccc(C(=O)Nc3nnc(-c4ccccn4)o3)cc2)CC(C)O1 (stereo unspecified) | inconclusive: 3.16 µM [inhibitor, single point] | 
10 | COc1ccc(NC(=O)CCNC(=O)Cn2cnc3sc4c(c3c2=O)CCCC4)c(OC)c1 |  | inactive: 20.7%
11 | COc1c(Cl)cc(C(=O)Nc2ccccc2C(=O)O)cc1Cl | inconclusive: 10 µM [activator, partial curve] | 
12 | CCc1cccc(CC)c1C(O)c1cccnc1 (stereo unspecified) | inconclusive: 2 µM [activator, partial curve, poor fit] | 
13 | CN1CCN(C(=S)c2cn(Cc3ccc(F)cc3)c3ccccc23)CC1 | inconclusive: 17.8 µM [inhibitor, single point] | 
14 | CC(/C=C/c1ccccc1)=N\NC(=S)NC(C)C | inconclusive: 5.62 µM [inhibitor, single point] | 
15 | CCOC(=O)Cc1cc(=O)n2[nH]c(-c3ccc(Cl)cc3)cc2n1 |  | inactive: -21.6%
16 | NCCC[C@@H](CC(=O)N[C@@H]1CCCC[C@H]1C(=O)N[C@H](CC(=O)N[C@@H](CCC(=O)O)CC(=O)O)Cc1ccccc1)NC(=O)C[C@H](Cc1c[nH]c2ccccc12)NC(=O)[C@@H]1CNCC[C@H]1N |  | inactive: -5.65%
17 | COc1ccccc1C(=O)N1CC2(C)CC1CC(C)(C)C2 (stereo unspecified) | inconclusive: 0.891 µM [inhibitor, full curve] | 
18 | N=C1SCC(=O)N1c1ncc(Cc2ccccc2Cl)s1 | active: 126 µM | 
19 | CCNc1ncc2nc(-c3ccc(Cl)cc3)c(=O)n(-c3ccc(OC)cc3)c2n1 | inconclusive: 31.6 µM [inhibitor, single point] | 
20 | O=C(/C=C/c1cn(-c2ccccc2)nc1-c1ccccc1)Nc1ccc(C(=O)O)cc1 | inconclusive: 11.2 µM [activator, partial curve] | 
21 | COc1ccc(-c2nnc(NC(=O)c3ccc4c(c3)OCCO4)o2)cc1 | active: 1.12 µM | 
22 | O=C(c1ccc2c(=O)n3c(nc2c1)CCCCC3)N1CCN(c2ccc(Cl)cc2)CC1 | inconclusive: 20 µM [activator, partial curve] | 
23 | Cc1ccccc1/C=N/n1c(-c2cc(-c3ccccc3)n[nH]2)n[nH]c1=S | inconclusive: 0.794 µM [inhibitor, partial curve] | 
24 | O=C(NC(=S)N1CCN(c2ccccc2)CC1)c1ccccc1 | active: 1.41 µM | 

Row | SMILES | Potency | activity change, negative = inhibition
25 | Cc1ccc(Cl)cc1NC(=S)N(CCCN1CCOCC1)Cc1ccco1 | inconclusive: 35.5 µM [inhibitor, single point] | 
26 | Cc1occc1C(=O)NC1CCCN(Cc2ccc(CC(C)C)cc2)C1 (stereo unspecified) | inconclusive: 17.8 µM [activator, single point] | 
27 | Cc1c(C(=O)OCC2CCCO2)[nH]c2c1C(=O)CC(c1ccc(N(C)C)cc1)C2 (stereo unspecified) | inconclusive: 6.31 µM [activator, full curve] | 
28 | CC(=O)N1c2ccc(S(=O)(=O)N3CCCC(C(=O)N4CCCC(C)C4)C3)cc2CC1C (stereo unspecified) | inconclusive: 28.2 µM [activator, single point] | 
29 | COc1ccc(OC)c(S(=O)(=O)N2CCC(C(=O)N3CCN(Cc4ccccc4)CC3)CC2)c1 | inconclusive: 3.98 µM [activator, single point] | 
30 | Cc1cc(C(=O)c2ccccc2)c(NC(=O)CCl)s1 |  | inactive: -11.9% [at 10 µM]
31 | COc1cccc(C2=NN(C(=O)c3ccccc3)C(O)(C(F)(F)F)C2)c1 (stereo unspecified) | active: 10 µM | 
32 | Fc1ccc(-c2csc3ncnc(N4CCc5ccccc5C4)c23)cc1 | inconclusive: 35.5 µM [activator, single point] | 
33 | CCN(CC(=O)Nc1cccc(OC)c1)C(=O)C1CCN(C(=O)Nc2ccccc2)CC1 |  | inactive: 44.3%
34 | CC(=O)c1ccc(N2CCN(c3ccc(S(=O)(=O)NCCN(C)C)cc3[N+](=O)[O-])CC2)cc1 | inconclusive: 12.6 µM [activator, single point] | 
35 | CN(CC(=O)N1CCN(c2ccccn2)CC1)S(=O)(=O)c1ccccc1 | inconclusive: 0.891 µM [activator, partial curve, poor fit] | 
36 | CCOc1ccc(N2CC(C(=O)Nc3nnc(Cc4ccc(OC)cc4)s3)CC2=O)cc1 (stereo unspecified) |  | inactive: 13.4%
37 | O=C(OCCN1CCCCC1)c1ccc(Cl)cc1 | inconclusive: 3.55 µM [activator, single point] | 
38 | CCc1ccc(-c2cc(C(=O)N/N=C/c3ccccn3)[nH]n2)cc1 | active: 12.6 µM | 
39 | O=[N+]([O-])c1ccc(Sc2cccc3cccnc23)c([N+](=O)[O-])c1 | active: 7.08 µM | 
40 | CCOC(=O)C(=NC1CCS(=O)(=O)C1)NNc1ccccc1Cl (stereo unspecified) |  | inactive: -14.5%
41 | O=C(N/N=C/c1c[nH]c2ccccc12)c1cc(Br)ccc1O | active: 5.62 µM | 
42 | CCOCCCn1c(=S)[nH]c2ncccc2c1=O | active: 10 µM | 
43 | CC1CCCCN1S(=O)(=O)c1ccc(C(=O)Nc2nnc(-c3ccco3)o2)cc1 (stereo unspecified) | active: 0.708 µM | 
44 | CCOC(=O)c1csc(N/N=C2\CCc3ccccc32)n1 | active: 10 µM | 
45 | COc1ccc(Cc2nnc(NC(=O)c3cc(OC)c(OC)c(OC)c3)s2)cc1OC | active: 7.08 µM | 
46 | CCc1ccc(Nc2n[n+](-c3ccccc3)c(/C=C/c3ccccc3)s2)cc1 | inconclusive: 17.8 µM [inhibitor, single point] | 
47 | Cc1ccc(C)c(-n2c(N)c(C(N)=O)sc2=S)c1 |  | inactive: 28.3%
48 | CCCCCCCCCCCCCCCC(=O)OCC(NC(=O)C(Cl)Cl)C(O)c1ccc([N+](=O)[O-])cc1 (stereo unspecified) |  | inactive: -21.2%

Row | SMILES | Potency | activity change, negative = inhibition
49 | COc1ccccc1/C=C1\SC(=S)N(CCC(=O)NNC(=O)c2ccccc2O)C1=O | inconclusive: 11.2 µM [inhibitor, partial curve] | 
50 | O=C(CSc1cc(Cl)ccc1Cl)NC1CCCc2ccccc21 (stereo unspecified) | inconclusive: 35.5 µM [inhibitor, single point] | 
51 | O=C(COc1ccc(Cl)cc1)Nc1nc(-c2ccc(S(=O)(=O)N3CCOCC3)cc2)cs1 | inconclusive: 15.8 µM [activator, single point] | 
52 | COc1ccc(C(=O)On2c(-c3ccc(Br)cc3)nc3ccccc3c2=O)cc1 | active: 7.08 µM | 
53 | Cc1csc(NC(=O)CSc2nnc(-c3ccoc3C)n2CCc2ccccc2)n1 | inconclusive: 0.112 µM [inhibitor, single point] | 
54 | N#Cc1c(NC(=O)CN2CCOCC2)oc(-c2ccccc2)c1-c1ccccc1 |  | inactive: -12.3%
55 | CCC1CCc2sc(C(=O)NCc3ccccn3)cc2C1 (stereo unspecified) | inconclusive: 35.5 µM [inhibitor, single point] | 
56 | COc1ccc(CN2CN=C(Nc3nc4ccccc4s3)NC2)cc1 |  | inactive: 10.7%
57 | CNc1nnc(-c2cc3ccccc3oc2=O)s1 | inconclusive: 8.91 µM [inhibitor, partial curve] | 
58 | COC(=O)c1ccc(NC(=S)NC(=O)c2cc(-c3ccccc3)nc3ccccc23)cc1 | active: 0.447 µM | 
59 | O=C(c1ccc(Cl)cc1)N1CCC(O)(CSc2ccc(Cl)cc2Cl)CC1 |  | inactive: 3.58%
60 | COC(=O)c1ccc2c(c1)C(=O)/C(=C/c1ccc(O)cc1)O2 | active: 0.224 µM | 
61 | COc1ccc(C(=O)c2sc(Nc3ccccc3)nc2N)cc1OC |  | inactive: 12.8%
62 | Cc1ccc(SCC(=O)c2sc(-c3ccccc3)nc2C)cc1 | inconclusive: 11.2 µM [activator, single point] | 
63 | C=CCN1C(=O)C(Cc2ccc(SC(F)F)cc2)SC1=Nc1ccc(C(=O)O)cc1 (stereo unspecified) | inconclusive: 0.398 µM [inhibitor, full curve] | 
64 | Cc1ccc(C)c(C(C)NC(=S)NC2CCCCC2)c1 (stereo unspecified) | active: 2.51 µM | 
65 | NS(=O)(=O)c1cccc(NC(=O)COC(=O)c2cc(-c3ccc(Cl)cc3)nc3ccccc23)c1 | inconclusive: 31.6 µM [inhibitor, single point] | 
66 | O=c1[nH]c2ccc(Cl)cc2c(=O)n1Cc1ccco1 | inconclusive: 25.1 µM [inhibitor, single point] | 
67 | c1cncc(CNc2ccc3c(c2)OCO3)c1 |  | inactive: 7.88%
68 | O=C(c1c(F)cccc1F)N1CCC(n2nnc3cc(C(F)(F)F)ccc32)CC1 | inconclusive: 12.6 µM [activator, partial curve] | 
69 | Cc1ccc(-c2csc3ncnc(SCC(N)=O)c23)cc1 | active: 1.58 µM | 
70 | CCOc1ccc(/C=N/Nc2nc(C)cs2)c(O)c1 | active: 1.41 µM | 
71 | Cc1ccc(C)c(N2CCN(C(=O)c3csc4ccccc34)CC2)c1 | inconclusive: 7.08 µM [activator, partial curve] | 
